Data published in paper PMC7265453.
These are yes or no findings as the source states them, for the method shown. In cells and extracts the contact can be indirect. Some binding calls cover weakened binding; strength is not graded here.

Sequences of proteins named here, by UniProt entry; tags and fusion partners are left off.
UniProt P06239: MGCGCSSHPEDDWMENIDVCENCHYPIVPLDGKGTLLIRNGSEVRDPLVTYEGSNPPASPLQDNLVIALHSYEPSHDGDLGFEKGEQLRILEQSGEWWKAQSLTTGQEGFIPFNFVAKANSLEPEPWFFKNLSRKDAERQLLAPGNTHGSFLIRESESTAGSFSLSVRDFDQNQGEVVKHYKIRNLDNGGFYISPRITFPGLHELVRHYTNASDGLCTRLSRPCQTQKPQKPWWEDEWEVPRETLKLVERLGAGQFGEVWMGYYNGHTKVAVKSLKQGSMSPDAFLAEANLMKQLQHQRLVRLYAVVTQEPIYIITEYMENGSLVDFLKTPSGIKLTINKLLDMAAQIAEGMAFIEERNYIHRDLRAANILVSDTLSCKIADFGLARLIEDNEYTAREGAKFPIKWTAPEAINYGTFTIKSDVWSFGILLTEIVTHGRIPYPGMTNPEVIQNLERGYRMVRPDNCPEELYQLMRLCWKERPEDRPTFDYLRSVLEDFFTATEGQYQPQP

Tests used:
[1] = target: T1, IRAP 3CA (mouse) (UniProt Q8C129); assay: co-IP; IRAP immunoprecipitated with rabbit anti-IRAP bound on Dynabeads Protein G from Jurkat T cell lysates (wt cells, or IRAP ko cells reconstituted with IRAP E465A or IRAP 3CA); lysis in 50 mM Tris, 150 mM NaCl, 1% CHAPS with protease and phosphatase inhibitors; immunoblot
T1 sequence: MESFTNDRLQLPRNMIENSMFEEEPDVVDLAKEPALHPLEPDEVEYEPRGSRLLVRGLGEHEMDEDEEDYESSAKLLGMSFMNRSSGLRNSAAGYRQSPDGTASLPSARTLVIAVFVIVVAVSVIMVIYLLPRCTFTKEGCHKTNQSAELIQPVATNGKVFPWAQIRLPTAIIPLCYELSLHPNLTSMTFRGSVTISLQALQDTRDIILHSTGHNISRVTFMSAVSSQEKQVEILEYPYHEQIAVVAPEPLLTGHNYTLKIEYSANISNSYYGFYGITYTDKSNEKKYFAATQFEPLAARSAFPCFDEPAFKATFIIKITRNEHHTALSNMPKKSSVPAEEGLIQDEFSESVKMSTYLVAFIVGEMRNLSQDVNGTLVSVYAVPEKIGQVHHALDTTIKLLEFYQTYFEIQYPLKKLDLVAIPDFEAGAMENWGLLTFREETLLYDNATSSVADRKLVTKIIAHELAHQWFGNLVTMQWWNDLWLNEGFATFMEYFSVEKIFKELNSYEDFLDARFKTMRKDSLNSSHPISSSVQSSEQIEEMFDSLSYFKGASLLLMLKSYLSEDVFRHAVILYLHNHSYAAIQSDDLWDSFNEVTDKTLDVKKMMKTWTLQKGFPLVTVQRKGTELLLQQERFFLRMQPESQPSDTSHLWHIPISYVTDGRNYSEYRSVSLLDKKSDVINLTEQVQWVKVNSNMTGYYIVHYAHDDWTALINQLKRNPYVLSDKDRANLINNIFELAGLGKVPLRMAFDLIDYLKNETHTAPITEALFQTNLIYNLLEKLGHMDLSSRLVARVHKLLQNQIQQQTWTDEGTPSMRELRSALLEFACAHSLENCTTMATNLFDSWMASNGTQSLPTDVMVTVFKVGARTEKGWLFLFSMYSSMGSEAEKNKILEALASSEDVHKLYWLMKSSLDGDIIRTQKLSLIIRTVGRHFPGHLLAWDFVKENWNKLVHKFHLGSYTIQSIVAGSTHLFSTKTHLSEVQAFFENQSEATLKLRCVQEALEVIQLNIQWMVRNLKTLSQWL

[2] = target: Insulin Responsive AminoPeptidase (IRAP) (human (endogenous in Jurkat)) (UniProt Q9UIQ6); assay: as above

| Substance | binding [1] | binding [2] |
| --- | --- | --- |
| T-cell receptor ζ chain (CD3ζ) (from UniProt P20963-1 22-164) | no binding | binds |
| lymphocyte-specific protein tyrosine kinase (Lck) (from UniProt P06239 1-509) (enzyme) | – | binds |
